# Values of other authors, collected in patent publication US20130040036A1, “Shelf Stable, Low Water Liquid Beverage Concentrates And Methods Of Making The Same” (priority 2011, published 2013).
# Some results were stated once for a whole list of compounds, not compound by compound. Peptide text beside a SMILES is read from it.
# Details: increased rate of degradation at lower or higher pH; cited from earlier work
compound,measurement,value
COC(=O)[C@H](Cc1ccccc1)NC(=O)[C@@H](N)CC(=O)O [aspartame] (H-Asp-Phe-OMe),pH of greatest stability,4-4.5
